This is one part of the list. Most values lie at the level of the controls, where differences are scatter.

The chains behind the UniProt entries cited, without tags or fusion partners. Where a name states a change or a piece, a line headed by the entry shows the natural chain unless it says otherwise.
UniProt O43809, whole entry: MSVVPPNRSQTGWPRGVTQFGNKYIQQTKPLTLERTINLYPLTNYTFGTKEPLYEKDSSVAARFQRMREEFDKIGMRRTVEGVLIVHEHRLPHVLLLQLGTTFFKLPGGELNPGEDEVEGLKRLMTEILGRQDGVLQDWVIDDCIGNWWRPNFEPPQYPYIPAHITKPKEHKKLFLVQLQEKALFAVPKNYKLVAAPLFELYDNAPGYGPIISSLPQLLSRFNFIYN
UniProt O43427: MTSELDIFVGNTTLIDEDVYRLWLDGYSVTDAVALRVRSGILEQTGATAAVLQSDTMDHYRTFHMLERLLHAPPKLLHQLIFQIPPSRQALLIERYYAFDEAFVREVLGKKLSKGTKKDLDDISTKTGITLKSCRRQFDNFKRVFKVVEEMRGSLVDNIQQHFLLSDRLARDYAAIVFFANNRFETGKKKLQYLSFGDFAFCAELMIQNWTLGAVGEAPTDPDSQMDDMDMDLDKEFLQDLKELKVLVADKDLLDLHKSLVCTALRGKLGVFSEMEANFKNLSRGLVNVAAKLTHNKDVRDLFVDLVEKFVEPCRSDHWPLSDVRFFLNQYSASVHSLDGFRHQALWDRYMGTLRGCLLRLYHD
UniProt O43435: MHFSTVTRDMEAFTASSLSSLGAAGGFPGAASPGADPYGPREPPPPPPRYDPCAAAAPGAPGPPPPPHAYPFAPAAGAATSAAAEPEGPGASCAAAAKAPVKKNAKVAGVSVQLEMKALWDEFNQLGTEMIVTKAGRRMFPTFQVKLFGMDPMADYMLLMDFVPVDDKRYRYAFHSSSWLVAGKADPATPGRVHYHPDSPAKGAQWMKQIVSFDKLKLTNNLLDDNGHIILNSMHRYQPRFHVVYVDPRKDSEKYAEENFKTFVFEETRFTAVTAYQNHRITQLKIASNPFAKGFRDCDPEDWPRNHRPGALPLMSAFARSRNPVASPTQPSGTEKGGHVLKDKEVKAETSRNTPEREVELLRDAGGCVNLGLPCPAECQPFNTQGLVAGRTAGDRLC
UniProt O60861: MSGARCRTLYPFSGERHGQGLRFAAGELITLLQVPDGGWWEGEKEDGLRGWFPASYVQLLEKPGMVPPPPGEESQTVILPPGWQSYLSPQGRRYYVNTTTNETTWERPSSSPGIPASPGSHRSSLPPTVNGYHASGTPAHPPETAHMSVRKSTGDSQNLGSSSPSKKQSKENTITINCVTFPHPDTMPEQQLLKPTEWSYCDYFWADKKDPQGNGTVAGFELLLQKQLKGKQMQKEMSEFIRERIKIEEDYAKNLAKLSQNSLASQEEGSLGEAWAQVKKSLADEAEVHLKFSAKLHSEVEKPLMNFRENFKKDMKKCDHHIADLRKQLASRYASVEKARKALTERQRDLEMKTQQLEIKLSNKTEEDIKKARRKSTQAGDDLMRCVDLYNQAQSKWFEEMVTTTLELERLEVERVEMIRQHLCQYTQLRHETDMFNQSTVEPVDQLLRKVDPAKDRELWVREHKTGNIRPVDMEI
UniProt O60224: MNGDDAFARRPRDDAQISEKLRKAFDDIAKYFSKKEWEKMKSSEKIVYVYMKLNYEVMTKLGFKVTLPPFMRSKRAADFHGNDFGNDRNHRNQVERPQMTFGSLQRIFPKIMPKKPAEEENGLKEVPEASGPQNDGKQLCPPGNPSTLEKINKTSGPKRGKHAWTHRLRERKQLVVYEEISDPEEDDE
UniProt O75116: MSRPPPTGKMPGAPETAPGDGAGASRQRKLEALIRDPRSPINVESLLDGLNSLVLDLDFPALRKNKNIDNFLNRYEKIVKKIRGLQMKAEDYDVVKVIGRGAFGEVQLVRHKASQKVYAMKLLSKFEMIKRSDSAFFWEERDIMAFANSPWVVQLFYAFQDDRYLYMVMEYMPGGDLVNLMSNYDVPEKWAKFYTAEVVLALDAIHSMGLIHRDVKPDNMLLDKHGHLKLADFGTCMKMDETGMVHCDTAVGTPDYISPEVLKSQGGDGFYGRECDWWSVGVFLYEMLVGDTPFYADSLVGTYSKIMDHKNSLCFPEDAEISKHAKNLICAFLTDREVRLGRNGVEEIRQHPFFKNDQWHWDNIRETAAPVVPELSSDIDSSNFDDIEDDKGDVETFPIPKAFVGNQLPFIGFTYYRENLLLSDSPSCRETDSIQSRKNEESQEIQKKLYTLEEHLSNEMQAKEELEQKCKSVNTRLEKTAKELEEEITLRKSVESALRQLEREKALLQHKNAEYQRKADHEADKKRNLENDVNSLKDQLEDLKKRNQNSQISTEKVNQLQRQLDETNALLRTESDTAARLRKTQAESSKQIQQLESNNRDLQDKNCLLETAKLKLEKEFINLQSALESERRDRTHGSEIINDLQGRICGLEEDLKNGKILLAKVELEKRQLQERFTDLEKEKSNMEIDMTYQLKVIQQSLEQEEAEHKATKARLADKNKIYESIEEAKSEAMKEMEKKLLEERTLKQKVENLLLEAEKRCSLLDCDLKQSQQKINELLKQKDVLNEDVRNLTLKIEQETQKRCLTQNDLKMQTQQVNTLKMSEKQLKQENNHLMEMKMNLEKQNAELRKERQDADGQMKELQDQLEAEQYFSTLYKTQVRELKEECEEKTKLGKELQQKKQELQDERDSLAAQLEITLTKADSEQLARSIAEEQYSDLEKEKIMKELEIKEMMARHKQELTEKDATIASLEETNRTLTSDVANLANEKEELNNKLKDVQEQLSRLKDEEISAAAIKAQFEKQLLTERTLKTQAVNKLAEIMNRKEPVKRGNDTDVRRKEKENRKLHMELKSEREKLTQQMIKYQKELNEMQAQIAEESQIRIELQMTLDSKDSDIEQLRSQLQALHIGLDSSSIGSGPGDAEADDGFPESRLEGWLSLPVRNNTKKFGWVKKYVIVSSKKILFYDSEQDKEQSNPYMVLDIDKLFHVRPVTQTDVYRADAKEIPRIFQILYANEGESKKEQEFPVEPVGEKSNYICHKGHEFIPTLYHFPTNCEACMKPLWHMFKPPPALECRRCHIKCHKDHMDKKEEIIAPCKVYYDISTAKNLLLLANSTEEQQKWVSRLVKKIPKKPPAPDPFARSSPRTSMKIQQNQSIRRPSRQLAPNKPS
UniProt O15516: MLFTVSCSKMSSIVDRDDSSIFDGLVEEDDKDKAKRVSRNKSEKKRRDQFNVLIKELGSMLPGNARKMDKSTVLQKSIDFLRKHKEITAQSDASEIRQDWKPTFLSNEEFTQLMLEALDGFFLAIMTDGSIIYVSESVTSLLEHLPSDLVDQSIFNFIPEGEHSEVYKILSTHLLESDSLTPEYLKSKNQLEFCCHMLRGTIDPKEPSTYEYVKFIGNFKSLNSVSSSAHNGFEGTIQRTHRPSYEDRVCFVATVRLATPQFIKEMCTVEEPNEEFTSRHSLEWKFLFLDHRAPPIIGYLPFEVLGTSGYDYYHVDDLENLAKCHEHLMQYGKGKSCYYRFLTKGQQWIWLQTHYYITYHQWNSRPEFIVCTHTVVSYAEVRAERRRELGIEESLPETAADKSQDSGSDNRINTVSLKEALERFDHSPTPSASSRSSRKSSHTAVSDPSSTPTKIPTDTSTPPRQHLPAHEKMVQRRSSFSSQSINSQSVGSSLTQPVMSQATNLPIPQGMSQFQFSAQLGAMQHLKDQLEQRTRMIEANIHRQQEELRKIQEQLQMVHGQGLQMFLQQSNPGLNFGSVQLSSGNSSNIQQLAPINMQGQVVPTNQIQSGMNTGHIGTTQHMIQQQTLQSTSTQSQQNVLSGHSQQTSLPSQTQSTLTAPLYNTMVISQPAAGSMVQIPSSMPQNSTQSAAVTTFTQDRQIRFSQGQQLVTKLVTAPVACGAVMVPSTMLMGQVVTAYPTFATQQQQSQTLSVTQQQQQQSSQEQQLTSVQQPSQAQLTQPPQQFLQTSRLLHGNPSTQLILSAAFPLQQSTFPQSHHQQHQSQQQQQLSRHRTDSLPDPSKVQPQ
UniProt O43663: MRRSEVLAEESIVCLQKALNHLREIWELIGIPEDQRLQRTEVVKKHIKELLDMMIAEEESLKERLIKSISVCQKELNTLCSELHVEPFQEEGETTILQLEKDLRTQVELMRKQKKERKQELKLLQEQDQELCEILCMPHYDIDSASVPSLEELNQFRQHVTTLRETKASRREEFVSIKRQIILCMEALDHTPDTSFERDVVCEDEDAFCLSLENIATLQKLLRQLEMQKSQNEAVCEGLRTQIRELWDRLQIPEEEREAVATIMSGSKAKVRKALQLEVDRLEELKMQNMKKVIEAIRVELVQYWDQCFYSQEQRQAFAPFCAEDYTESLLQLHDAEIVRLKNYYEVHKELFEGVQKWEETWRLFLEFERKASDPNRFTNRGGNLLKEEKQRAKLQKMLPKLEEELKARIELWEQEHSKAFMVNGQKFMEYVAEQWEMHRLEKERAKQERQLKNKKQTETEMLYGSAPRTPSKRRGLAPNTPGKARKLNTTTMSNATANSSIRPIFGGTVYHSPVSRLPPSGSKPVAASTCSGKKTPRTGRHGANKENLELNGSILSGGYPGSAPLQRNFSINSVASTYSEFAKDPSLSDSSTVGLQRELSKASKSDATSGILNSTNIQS
UniProt O60361, whole entry: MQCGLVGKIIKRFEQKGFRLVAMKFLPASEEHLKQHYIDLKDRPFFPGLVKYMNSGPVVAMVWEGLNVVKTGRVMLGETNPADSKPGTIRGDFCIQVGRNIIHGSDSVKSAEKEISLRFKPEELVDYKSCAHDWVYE
UniProt O43422: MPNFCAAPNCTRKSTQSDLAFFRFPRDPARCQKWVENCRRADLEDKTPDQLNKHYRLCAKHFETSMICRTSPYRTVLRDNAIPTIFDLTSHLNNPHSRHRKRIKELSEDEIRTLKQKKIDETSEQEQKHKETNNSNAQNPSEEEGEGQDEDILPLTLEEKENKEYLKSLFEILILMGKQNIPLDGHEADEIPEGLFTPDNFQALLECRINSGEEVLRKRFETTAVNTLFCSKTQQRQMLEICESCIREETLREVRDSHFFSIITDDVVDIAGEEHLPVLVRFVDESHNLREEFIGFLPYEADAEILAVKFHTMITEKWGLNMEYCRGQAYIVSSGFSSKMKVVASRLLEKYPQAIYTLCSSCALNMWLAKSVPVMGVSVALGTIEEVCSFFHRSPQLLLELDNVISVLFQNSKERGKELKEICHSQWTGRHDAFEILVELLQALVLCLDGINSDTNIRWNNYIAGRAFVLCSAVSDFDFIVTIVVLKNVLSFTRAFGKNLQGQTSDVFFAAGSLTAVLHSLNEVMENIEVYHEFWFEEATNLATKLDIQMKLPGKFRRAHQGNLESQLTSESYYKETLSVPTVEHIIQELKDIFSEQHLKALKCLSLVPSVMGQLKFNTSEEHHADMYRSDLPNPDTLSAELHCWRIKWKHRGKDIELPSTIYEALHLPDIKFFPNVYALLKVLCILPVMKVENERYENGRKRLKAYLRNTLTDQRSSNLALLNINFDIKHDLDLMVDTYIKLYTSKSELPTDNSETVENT
UniProt O43852: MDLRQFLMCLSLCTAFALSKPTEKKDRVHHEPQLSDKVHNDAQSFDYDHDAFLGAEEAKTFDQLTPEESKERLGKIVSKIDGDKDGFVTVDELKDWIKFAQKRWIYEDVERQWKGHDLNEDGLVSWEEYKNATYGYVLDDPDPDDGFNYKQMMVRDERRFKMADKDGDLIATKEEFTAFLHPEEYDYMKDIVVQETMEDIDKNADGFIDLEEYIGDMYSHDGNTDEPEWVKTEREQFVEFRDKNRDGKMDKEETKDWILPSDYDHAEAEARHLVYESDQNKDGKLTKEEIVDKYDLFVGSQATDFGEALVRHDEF
UniProt O75348, whole entry: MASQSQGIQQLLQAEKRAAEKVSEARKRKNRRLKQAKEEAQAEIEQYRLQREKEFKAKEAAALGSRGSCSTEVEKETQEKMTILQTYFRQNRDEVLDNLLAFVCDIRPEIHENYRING
UniProt O43752: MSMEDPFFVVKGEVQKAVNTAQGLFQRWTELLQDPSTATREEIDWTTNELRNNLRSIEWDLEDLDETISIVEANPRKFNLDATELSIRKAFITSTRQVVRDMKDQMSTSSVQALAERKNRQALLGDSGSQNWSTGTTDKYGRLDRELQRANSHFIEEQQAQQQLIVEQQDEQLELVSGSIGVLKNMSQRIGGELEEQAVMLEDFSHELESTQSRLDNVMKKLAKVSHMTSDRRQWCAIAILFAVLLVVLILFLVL
UniProt O75312: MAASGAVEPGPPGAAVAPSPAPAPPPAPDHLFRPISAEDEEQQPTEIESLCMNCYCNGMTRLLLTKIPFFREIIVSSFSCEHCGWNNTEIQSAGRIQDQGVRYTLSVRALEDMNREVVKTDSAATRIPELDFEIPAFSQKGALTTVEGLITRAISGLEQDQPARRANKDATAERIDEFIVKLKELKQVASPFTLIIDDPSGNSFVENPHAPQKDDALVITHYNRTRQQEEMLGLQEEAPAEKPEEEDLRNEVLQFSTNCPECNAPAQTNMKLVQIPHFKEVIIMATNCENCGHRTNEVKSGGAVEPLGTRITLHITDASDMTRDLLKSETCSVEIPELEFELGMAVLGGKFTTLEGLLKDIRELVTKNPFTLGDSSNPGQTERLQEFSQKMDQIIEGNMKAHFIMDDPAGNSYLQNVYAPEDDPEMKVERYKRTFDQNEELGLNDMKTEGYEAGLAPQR

Compound in this test: CN[C@@H]1C[C@H]2O[C@@](C)([C@@H]1OC)n1c3ccccc3c3c4c(c5c6ccccc6n2c5c31)C(=O)NC4 [staurosporine]
The test is described as follows: log2 fold change of tryptic peptide abundance, ligand vs vehicle (limited proteolysis) (log2 ratio); higher = more trypsin-susceptible (destabilized). The following applies: ligand concentration: 20 uM; sample: K562 cleared lysate; digestion: 4 min, 22 C (HT-PELSA RT4min, Orbitrap Astral).
In the case of “UniProt O75072 (peptide sequence: NGAGLSK, peptide start residue: 36)”, the log2 fold change was -0.397. The same measure for “UniProt O43361 (peptide sequence: VLQVTIPKPALSTLK, peptide start residue: 68)”: 0.776; for “NUDT21 (peptide sequence: SQTGWPRGVTQFGNK, peptide start residue: 9) (UniProt O43809)”: 0.0182. As to “FIBP (peptide sequence: LWLDGYSVTDAVALR, peptide start residue: 22) (UniProt O43427)”, the log2 fold change is 0.499.

“MSH5 (peptide sequence: ASHASHTAAQAGLPDKLVAR, peptide start residue: 751) (UniProt O43196)”: the log2 fold change was -0.357.

Regarding “PRPSAP2 (peptide sequence: SVAAIHPSLEIPMLIPK, peptide start residue: 233) (UniProt O60256)”, the log2 fold change is -0.0436. For the target “TBX1 (peptide sequence: NHRPGALPLMSAFAR, peptide start residue: 306) (UniProt O43435)”, the log2 fold change was -0.451. Turning to “ZBED4 (peptide sequence: LTDLPTVVTK, peptide start residue: 538) (UniProt O75132)”, the log2 fold change amounted to 0.143. “KIAA0513 (peptide sequence: FGEYCSSENGK, peptide start residue: 121) (UniProt O60268)”: the log2 fold change is -0.366. Consider “UniProt O60861 (peptide sequence: TEEDIKK, peptide start residue: 365)”, for which the log2 fold change amounted to 0.127. “UniProt O60224 (peptide sequence: EVPEASGPQNDGK, peptide start residue: 125)”: the log2 fold change was -0.00289. In the case of “SART1 (peptide sequence: MAIDDKYSR, peptide start residue: 679) (UniProt O43290)” it was 0.323. The same measure for “ROCK2 (peptide sequence: LYTLEEHLSNEMQAKEELEQK, peptide start residue: 449) (UniProt O75116)”: -0.462; for “UniProt O15516 (peptide sequence: FSQGQQLVTK, peptide start residue: 703)”: 0.407; for “PRC1 (peptide sequence: FMEYVAEQWEMHR, peptide start residue: 428) (UniProt O43663)”: 0.361. The same measure for “NME2P1 (peptide sequence: QHYIDLK, peptide start residue: 50) (UniProt O60361)”: -0.144. With “OGG1 (peptide sequence: DYSWHPTTSQAK, peptide start residue: 278) (UniProt O15527)”, the log2 fold change was -0.265. As for “CAND2 (peptide sequence: MTSSDKDFR, peptide start residue: 15) (UniProt O75155)”, the log2 fold change is 0.472. Consider “WIPF1 (peptide sequence: GAPPLPPIPR, peptide start residue: 494) (UniProt O43516)”, for which the log2 fold change was 0.188. Turning to “RBFOX2 (peptide sequence: QMFGQFGK, peptide start residue: 139) (UniProt O43251)”, the log2 fold change amounted to 0.439. The same measure for “UniProt O43422 (peptide sequence: INSGEEVLRK, peptide start residue: 209)”: -0.622; for “ZEB2 (peptide sequence: IKTEPLDFNDYK, peptide start residue: 390) (UniProt O60315)”: -0.487; for “CALU (peptide sequence: HLVYESDQNKDGK, peptide start residue: 272) (UniProt O43852)”: -0.178. Regarding “UniProt O60381 (peptide sequence: YRVEYTQMYPGKDNR, peptide start residue: 448)”, the log2 fold change came to 0.232. On to “CFLAR (peptide sequence: DVAIDVVPPNVR, peptide start residue: 27) (UniProt O15519)”, for which the log2 fold change is -0.172. Take “GYG2 (peptide sequence: VVHFLGSMKPWNYK, peptide start residue: 243) (UniProt O15488)”: the log2 fold change is 0.755. The same measure for “ACSL4 (peptide sequence: MMLSGGAPLSPQTHR, peptide start residue: 438) (UniProt O60488)”: 0.211; for “ATP6V1G1 (peptide sequence: AAEKVSEAR, peptide start residue: 18) (UniProt O75348)”: 0.352.

As for “STX6 (peptide sequence: DMKDQMSTSSVQALAER, peptide start residue: 101) (UniProt O43752)”, the log2 fold change was -3.67. Consider “NBN (peptide sequence: VQKQEEDVNVR, peptide start residue: 580) (UniProt O60934)”, for which the log2 fold change is -0.159. In the case of “OIP5 (peptide sequence: AIVNASEMDIQNVPLSEK, peptide start residue: 178) (UniProt O43482)” it was -0.179; in that of “URB1 (peptide sequence: MMQTILHFPQNR, peptide start residue: 1602) (UniProt O60287)”, 0.524. The same measure for “AKR7A2 (peptide sequence: MDAPASAAAVR, peptide start residue: 51) (UniProt O43488)”: -0.152; for “ZW10 (peptide sequence: NLMTSEIHNTVK, peptide start residue: 413) (UniProt O43264)”: 0.224. Take “PLRG1 (peptide sequence: LRNEYGPVLHMPTSK, peptide start residue: 48) (UniProt O43660)”: the log2 fold change was -0.247.

On to “UniProt O75312 (peptide sequence: TEGYEAGLAPQR, peptide start residue: 448)”, for which the log2 fold change is 0.0953. Regarding “SRGAP2 (peptide sequence: MKEYLEGR, peptide start residue: 454) (UniProt O75044)”, the log2 fold change came to 0.194.

These data come from the supplement of paper PMC12819154, “High-throughput peptide-centric local stability assay extends protein–ligand identification to membrane proteins, tissues and bacteria” (Nature Structural & Molecular Biology, 2025).
